Results from paper PMC4438057.
These are yes or no findings as the source states them, for the method shown. Binding seen in cells or lysates may run through a third protein. Some results given as binding are weak or reduced against the parent protein; the word gives no strength.

The chains behind the UniProt entries cited, without tags or fusion partners. Where a name states a change or a piece, a line headed by the entry shows the natural chain unless it says otherwise.
UniProt Q9Y4G2: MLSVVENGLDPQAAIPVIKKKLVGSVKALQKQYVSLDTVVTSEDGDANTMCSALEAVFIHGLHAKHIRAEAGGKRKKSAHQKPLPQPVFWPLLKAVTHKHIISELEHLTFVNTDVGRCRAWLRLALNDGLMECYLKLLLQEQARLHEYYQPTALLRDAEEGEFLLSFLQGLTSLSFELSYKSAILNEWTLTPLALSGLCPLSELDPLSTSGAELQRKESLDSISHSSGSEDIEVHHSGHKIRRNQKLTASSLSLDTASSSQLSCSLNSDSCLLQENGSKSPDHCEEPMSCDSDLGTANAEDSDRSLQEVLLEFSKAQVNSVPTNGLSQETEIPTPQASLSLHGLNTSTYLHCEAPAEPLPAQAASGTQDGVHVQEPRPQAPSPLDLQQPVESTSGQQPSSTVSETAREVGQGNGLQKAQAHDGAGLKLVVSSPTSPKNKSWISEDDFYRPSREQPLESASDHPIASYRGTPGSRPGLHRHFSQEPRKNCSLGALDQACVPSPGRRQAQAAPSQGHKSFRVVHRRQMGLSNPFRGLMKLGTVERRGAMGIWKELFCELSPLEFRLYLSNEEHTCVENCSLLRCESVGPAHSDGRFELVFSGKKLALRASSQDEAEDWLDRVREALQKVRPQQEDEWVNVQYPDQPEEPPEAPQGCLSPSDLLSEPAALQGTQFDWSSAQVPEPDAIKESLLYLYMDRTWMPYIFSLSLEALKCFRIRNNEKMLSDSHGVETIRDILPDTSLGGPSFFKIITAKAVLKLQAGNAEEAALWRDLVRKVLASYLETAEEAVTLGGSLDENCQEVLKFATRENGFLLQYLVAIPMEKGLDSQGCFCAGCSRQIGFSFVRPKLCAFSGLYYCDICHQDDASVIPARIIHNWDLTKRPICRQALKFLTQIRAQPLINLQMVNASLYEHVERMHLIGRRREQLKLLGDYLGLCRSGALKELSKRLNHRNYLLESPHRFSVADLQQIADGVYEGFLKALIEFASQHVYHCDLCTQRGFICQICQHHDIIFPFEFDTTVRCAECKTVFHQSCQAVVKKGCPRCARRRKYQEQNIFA
UniProt O14545: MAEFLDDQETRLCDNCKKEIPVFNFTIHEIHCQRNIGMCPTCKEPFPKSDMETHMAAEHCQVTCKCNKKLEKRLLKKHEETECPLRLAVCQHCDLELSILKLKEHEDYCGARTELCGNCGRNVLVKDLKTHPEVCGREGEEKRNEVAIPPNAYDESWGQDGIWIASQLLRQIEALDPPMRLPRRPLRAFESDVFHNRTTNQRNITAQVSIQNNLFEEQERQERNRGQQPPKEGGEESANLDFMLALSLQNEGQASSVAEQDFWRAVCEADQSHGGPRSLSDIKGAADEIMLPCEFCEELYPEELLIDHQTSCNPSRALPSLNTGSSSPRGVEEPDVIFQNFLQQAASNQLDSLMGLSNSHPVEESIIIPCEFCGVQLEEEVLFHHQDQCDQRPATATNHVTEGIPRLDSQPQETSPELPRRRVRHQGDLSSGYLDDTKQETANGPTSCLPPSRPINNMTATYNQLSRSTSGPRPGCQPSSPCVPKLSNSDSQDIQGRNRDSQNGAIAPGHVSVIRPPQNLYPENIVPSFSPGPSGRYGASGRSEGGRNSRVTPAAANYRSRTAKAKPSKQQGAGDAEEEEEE

Experiments:
[1] = target: TAP-tagged full-length human Plekhm1 (human) (UniProt Q9Y4G2); assay: pull-down; HEK293T cells co-transfected with TAP-Plekhm1 and TRAFD1-FLAG constructs; lysate (50 mM Hepes-KOH pH 8.0, 100 mM KCl, 2 mM EDTA, 0.1% Nonidet-40, 10% glycerol) pulled down with Streptavidin Sepharose, 2 h, 4°C; blot with anti-FLAG
[2] = target: C-terminally FLAG-tagged full-length TRAFD1 (human) (UniProt O14545); assay: co-IP; HEK293 cells with FLAG-tagged full-length TRAFD1 and TAP-tagged Plekhm1 constructs; lysate (50 mM Tris HCl pH 7.4, 150 mM NaCl, 5 mM MgCl2, 0.5% Triton-X-100) precipitated with FLAG-M2 gel, 2 h, 4°C; blot with anti-HA

| binding [1] | binding [2] | Substance |
| --- | --- | --- |
| binds |  | C-terminally FLAG-tagged full-length TRAFD1 (from UniProt O14545 1-582) |
|  | binds | TAP-tagged Plekhm1 C-terminal region (778–986 aa) (from UniProt Q9Y4G2 778-986) (domain or fragment) |
|  | binds | TAP-tagged full-length human Plekhm1 (from UniProt Q9Y4G2 1-1056) |
| binds |  | TRAFD1 N-terminal deletion mutant (aa Δ1–37), FLAG-tagged (from UniProt O14545 38-582) (domain or fragment) |
